The record followed here is publication doi:10.1101/2025.04.03.646911.

Sequences of proteins named here, by UniProt entry; tags and fusion partners are left off. Residues count along the entry.
UniProt Q6UXX9, residues 22-243: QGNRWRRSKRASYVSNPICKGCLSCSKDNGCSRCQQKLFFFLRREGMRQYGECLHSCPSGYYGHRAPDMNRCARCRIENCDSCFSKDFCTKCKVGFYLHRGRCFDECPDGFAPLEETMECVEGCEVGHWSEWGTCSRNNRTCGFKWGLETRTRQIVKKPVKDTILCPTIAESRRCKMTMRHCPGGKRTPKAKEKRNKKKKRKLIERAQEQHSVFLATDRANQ

These are yes or no findings as the source states them, for the method shown. In cells and extracts the contact can be indirect. Some binding calls cover weakened binding; strength is not graded here. For part of these data: Tags and fused reporters may be left off the sequences shown.

For one assay, the target named is T1, PALMD-GFP2 (UniProt Q9NP74).
T1 sequence: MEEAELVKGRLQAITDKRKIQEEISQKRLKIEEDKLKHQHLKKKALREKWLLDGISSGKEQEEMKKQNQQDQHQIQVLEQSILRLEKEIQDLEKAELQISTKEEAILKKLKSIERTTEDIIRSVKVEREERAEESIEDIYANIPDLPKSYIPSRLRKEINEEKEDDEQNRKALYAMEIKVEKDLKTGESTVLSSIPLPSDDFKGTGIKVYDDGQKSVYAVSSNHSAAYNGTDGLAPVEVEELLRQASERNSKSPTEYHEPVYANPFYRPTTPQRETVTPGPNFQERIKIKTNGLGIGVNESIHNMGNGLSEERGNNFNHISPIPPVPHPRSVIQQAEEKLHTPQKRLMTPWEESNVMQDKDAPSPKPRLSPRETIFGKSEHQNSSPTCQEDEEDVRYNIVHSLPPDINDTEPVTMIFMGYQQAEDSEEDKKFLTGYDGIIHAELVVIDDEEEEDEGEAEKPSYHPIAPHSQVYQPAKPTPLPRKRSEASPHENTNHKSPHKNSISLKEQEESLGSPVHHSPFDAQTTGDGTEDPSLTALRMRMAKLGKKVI
As to the kind of experiment: FRET or BRET.

Assay [1] addresses T2, PALMD-eGFP fusion protein (oePALMD) (UniProt Q9NP74).
T2 sequence: T1 sequence
Nature of the assay: co-IP.

Assay [2] addresses T3, Palmdelphin (PALMD) (human (endogenous in HCT116 and SW480)) (UniProt Q9NP74).
T3 sequence: T1 sequence
Nature of the assay: co-IP.

With “RSPO2-Rluc8 (from UniProt Q6UXX9 22-243)”, in the assay with PALMD-GFP2, the binding entry was “binds”.

“R-spondin2 (RSPO2) (from UniProt Q6UXX9 22-243)”: the binding result in assay [1] and in assay [2] was “binds” throughout.
